According to article PMC10653889:
Results are given in words; binding and its absence hold for the method and conditions named. Binding can be weak; no strength is given. Sequences can lack the tags named with a protein.

Biological target: SepT (All2460), BACTH fusions (Anabaena sp. PCC 7120)
Experiment: two-hybrid; BACTH (bacterial adenylate cyclase two-hybrid) in E. coli; beta-galactosidase activity (nmol ONP min^-1 mg protein^-1) in liquid cultures at 30°C; compared with both empty-vector controls (Fig. 3A)

B1: Alr0487 (putative SepF), BACTH fusion (protein, UniProt Q8YZH3 1-198)
chain: MNNIFSKLRDFVGLNEQVEYEYYEEEADTDNYQNLYQQENPQPAPAEAAPNNRRWREPMTTMGDDVAAGTKSAMGNVIGMPGAINGISEVLVLEPRTFEEMPQAIQALRERKSVVLNLTIMDPDQAQRAVDFVAGGTYALDGHQERIGESIFLFTPSCVQVSTQGGVIHEVPQPPARPARPASTNPPAWGNETNRMAQ
binding: binds
